Test [1] has as its target Mdm2, endogenous in HCT116 cells and their derivatives (human (endogenous in HCT116)) (UniProt Q00987). Briefly: co-IP; endogenous proteins; BC100 whole-cell extracts (HCT116, HCT116 p53^-/-, U2OS) precipitated with anti-p53 (1801), anti-Mdm2 (4B11) or mouse IgG overnight at 4 °C, Protein A/G agarose; western blot. (In general: A western blot detects proteins with antibodies after separation by electrophoresis.)

Sequences of proteins named here, by UniProt entry; tags and fusion partners are left off. A change or cut given only in a name is not applied to a line headed by its entry. Residues count along the entry.
UniProt Q00987: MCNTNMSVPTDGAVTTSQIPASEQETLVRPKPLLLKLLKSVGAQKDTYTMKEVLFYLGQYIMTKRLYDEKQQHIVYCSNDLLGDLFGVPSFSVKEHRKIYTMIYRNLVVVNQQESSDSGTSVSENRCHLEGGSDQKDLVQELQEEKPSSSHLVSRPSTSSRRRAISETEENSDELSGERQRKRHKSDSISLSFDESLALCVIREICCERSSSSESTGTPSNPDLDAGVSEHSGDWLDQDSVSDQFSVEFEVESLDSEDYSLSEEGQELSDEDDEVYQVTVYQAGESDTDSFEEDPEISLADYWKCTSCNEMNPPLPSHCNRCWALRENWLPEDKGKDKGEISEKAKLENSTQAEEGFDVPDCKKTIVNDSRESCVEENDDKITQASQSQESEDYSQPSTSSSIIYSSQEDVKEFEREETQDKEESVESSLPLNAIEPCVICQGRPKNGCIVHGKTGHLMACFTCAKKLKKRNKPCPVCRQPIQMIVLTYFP
GST-Mdm2 p53-binding domain (1–150): residues 1-150 of Q00987
GST-Mdm2 middle acid domain (210–300): residues 210-300 of Q00987
GST-Mdm2 C-terminal RING domain-containing region (425–491): residues 425-491 of Q00987

The target in test [2] is full-length GST-Mdm2 (human) (UniProt Q00987). The test can be described thus: pull-down; 2 μg GST or GST-fusion protein on 10 μl GST beads, purified FH-SMG7 in solution; BC100 buffer with 1 μg/μl BSA, overnight at 4 °C, five washes; western blot; both purified.
For test [3], the target named is GST-Mdm2 p53-binding domain (1–150) (human) (UniProt Q00987). The description is as above.
Test [4] concerns the target GST-Mdm2 middle acid domain (210–300) (human) (UniProt Q00987). The test is described as above.
The target of test [5] is GST-Mdm2 C-terminal RING domain-containing region (425–491) (human) (UniProt Q00987). The test is described as above.

Results are given in words; binding and its absence hold for the method and conditions named. For some assays here: In cells and extracts the contact can be indirect. Some entries that bind do so weakly or less than the wild type. For some assays here: Tags and fused reporters may be left off the sequences shown.

B1: SMG7 (suppressor with morphological defects in genitalia 7), endogenous in HCT116 cells and their derivatives (protein, UniProt Q92540-2 1-1091)
chain: MSLQSAQYLRQAEVLKADMTDSKLGPAEVWTSRQALQDLYQKMLVTDLEYALDKKVEQDLWNHAFKNQITTLQGQAKNRANPNRSEVQANLSLFLEAASGFYTQLLQELCTVFNVDLPCRVKSSQLGIISNKQTHTSAIVKPQSSSCSYICQHCLVHLGDIARYRNQTSQAESYYRHAAQLVPSNGQPYNQLAILASSKGDHLTTIFYYCRSIAVKFPFPAASTNLQKALSKALESRDEVKTKWGVSDFIKAFIKFHGHVYLSKSLEKLSPLREKLEEQFKRLLFQKAFNSQQLVHVTVINLFQLHHLRDFSNETEQHTYSQDEQLCWTQLLALFMSFLGILCKCPLQNESQEESYNAYPLPAVKVSMDWLRLRPRVFQEAVVDERQYIWPWLISLLNSFHPHEEDLSSISATPLPEEFELQGFLALRPSFRNLDFSKGHQGITGDKEGQQRRIRQQRLISIGKWIADNQPRLIQCENEVGKLLFITEIPELILEDPSEAKENLILQETSVIESLAADGSPGLKSVLSTSRNLSNNCDTGEKPVVTFKENIKTREVNRDQGRSFPPKEVKSQTELRKTPVSEARKTPVTQTPTQASNSQFIPIHHPGAFPPLPSRPGFPPPTYVIPPPVAFSMGSGYTFPAGVSVPGTFLQPTAHSPAGNQVQAGKQSHIPYSQQRPSGPGPMNQGPQQSQPPSQQPLTSLPAQPTAQSTSQLQVQALTQQQQSPTKAVPALGKSPPHHSGFQQYQQADASKQLWNPPQVQGPLGKIMPVKQPYYLQTQDPIKLFEPSLQPPVMQQQPLEKKMKPFPMEPYNHNPSEVKVPEFYWDSSYSMADNRSVMAQQANIDRRGKRSPGVFRPEQDPVPRMPFEKSLLEKPSELMSHSSSFLSLTGFSLNQERYPNNSMFNEVYGKNLTSSSKAELSPSMAPQETSLYSLFEGTPWSPSLPASSDHSTPASQSPHSSNPSSLPSSPPTHNHNSVPFSNFGPIGTPDNRDRRTADRWKTDKPAMGGFGIDYLSATSSSESSWHQASTPSGTWTGHGPSMEDSSAVLMESLKSIWSSSMMHPGPSALEQLLMQQKQKQQRGQGTMNPPH
B1: the binding result in test [1] is on record as “binds”.

B2: purified Flag/HA-SMG7 (protein, UniProt Q92540-2 1-1091)
chain: MSLQSAQYLRQAEVLKADMTDSKLGPAEVWTSRQALQDLYQKMLVTDLEYALDKKVEQDLWNHAFKNQITTLQGQAKNRANPNRSEVQANLSLFLEAASGFYTQLLQELCTVFNVDLPCRVKSSQLGIISNKQTHTSAIVKPQSSSCSYICQHCLVHLGDIARYRNQTSQAESYYRHAAQLVPSNGQPYNQLAILASSKGDHLTTIFYYCRSIAVKFPFPAASTNLQKALSKALESRDEVKTKWGVSDFIKAFIKFHGHVYLSKSLEKLSPLREKLEEQFKRLLFQKAFNSQQLVHVTVINLFQLHHLRDFSNETEQHTYSQDEQLCWTQLLALFMSFLGILCKCPLQNESQEESYNAYPLPAVKVSMDWLRLRPRVFQEAVVDERQYIWPWLISLLNSFHPHEEDLSSISATPLPEEFELQGFLALRPSFRNLDFSKGHQGITGDKEGQQRRIRQQRLISIGKWIADNQPRLIQCENEVGKLLFITEIPELILEDPSEAKENLILQETSVIESLAADGSPGLKSVLSTSRNLSNNCDTGEKPVVTFKENIKTREVNRDQGRSFPPKEVKSQTELRKTPVSEARKTPVTQTPTQASNSQFIPIHHPGAFPPLPSRPGFPPPTYVIPPPVAFSMGSGYTFPAGVSVPGTFLQPTAHSPAGNQVQAGKQSHIPYSQQRPSGPGPMNQGPQQSQPPSQQPLTSLPAQPTAQSTSQLQVQALTQQQQSPTKAVPALGKSPPHHSGFQQYQQADASKQLWNPPQVQGPLGKIMPVKQPYYLQTQDPIKLFEPSLQPPVMQQQPLEKKMKPFPMEPYNHNPSEVKVPEFYWDSSYSMADNRSVMAQQANIDRRGKRSPGVFRPEQDPVPRMPFEKSLLEKPSELMSHSSSFLSLTGFSLNQERYPNNSMFNEVYGKNLTSSSKAELSPSMAPQETSLYSLFEGTPWSPSLPASSDHSTPASQSPHSSNPSSLPSSPPTHNHNSVPFSNFGPIGTPDNRDRRTADRWKTDKPAMGGFGIDYLSATSSSESSWHQASTPSGTWTGHGPSMEDSSAVLMESLKSIWSSSMMHPGPSALEQLLMQQKQKQQRGQGTMNPPH
B2: the binding entry in test [2] is recorded as “binds”; in test [3], “binds weakly”; in test [4] it was “no binding”; in test [5], “binds”.

The values above are taken from paper PMC4860962.
